Results on 40 compounds are retold here after PubChem BioAssay AID2685 (National Center for Advancing Translational Sciences (NCATS), 2010).

The other results are listed elsewhere or left out. Further columns of the screen follow, without active or inactive calls. Compounds called inactive in the main read-out are mostly missing here. Potencies come from curve fits of mixed quality, noted in brackets.

This assay can be described thus: qHTS Assay for Lipid Storage Modulators in Drosophila S3 Cells.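 On cell number change: cells counted by Cell Tracker Red CMTPX staining in the red channel.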 The settings on record: BODIPY lipid droplet fluorescence, 18-24 h; for cell number change: measured here: cell count max response, cells fed with added oleic acid. In outline:
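Drosophila S3 cells loaded with oleic acid (400 uM, as added) and compounds at several concentrations; lipid droplets imaged by 488-nm laser-scanning cytometry, 500–530 nm intensity and object ratio to cell channel. Percent activity normalized to 20 uM Triacsin C.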
In general terms: In qHTS, concentration-response curves come from the screen itself.

Where [1] appears, read: measured here: cell number channel AC50, cells fed with added oleic acid.
[2] abbreviates: measured here: lipid fluorescence (Fed channel) AC50, cells fed with added oleic acid.

For the compound `Cc1cccc(NC(=O)CN2C(=O)CCSc3ccc(S(=O)(=O)N4CCOCC4)cc32)c1C`, the cell number change was 26.7%.

As for `Cc1ccc(S(=O)(=O)N/N=C/c2cn(C)nc2C)cc1`, the cell number change stood at 32.4%. The AC50 under setting [1] is 3.26 µM [rising, partial curve, poor fit].

As for `COc1ccc(N2C(=O)NC3CC2(C)Oc2ccc(Br)cc23)cc1OC` (centres undefined), the cell number change worked out at 5.83%. Besides, the AC50 under setting [1] was 0.517 µM [falling, partial curve, poor fit].

As for `COc1ccc(C)cc1NC(=O)CN1CCN(c2ccccn2)CC1`, the cell number change was found to be 2.08%. In addition, the AC50 under setting [2] was 5.17 µM [rising, single point].

Turning to `CCOC(=O)c1cc(-c2ccccc2)n(CCC(=O)N2CCN(c3ccc(OC)cc3)CC2)c1C`, the cell number change worked out at 5.71%. The AC50 under setting [2] was 0.651 µM [rising, single point].

With `Cc1nnc(N/N=C/c2c(Cl)cccc2Cl)n1N`, the cell number change is -60.6%. In addition, under setting [1], the AC50 is 29.1 µM [falling, single point]. Moreover, the AC50 under setting [2] is 0.291 µM [falling, full curve, poor fit].

`O=S1(=O)CC(O)C(Nc2ccccc2)C1` (centres undefined): the cell number change is -10.7%. Under setting [2], the AC50 is 4.61 µM [falling, single point].

With `O=C(CNC(=O)c1cccc(Br)c1)N/N=C/c1ccc2c(c1)OCO2`, the cell number change was found to be 14.8%.

With `CSc1ccc(CNC(=O)CCn2ccc3cc(S(=O)(=O)N4CCCC4)ccc32)cc1`, the cell number change stood at 16.7%. The AC50 under setting [2] was 29.1 µM [rising, single point].

With `Cc1cccc(C)c1N(CC(=O)N1CCOCC1)S(C)(=O)=O`, under setting [2], the AC50 was 2.91 µM [falling, single point].

For the compound `COc1ccc(-c2c(-c3ccc4c(c3)OCO4)noc2C)cn1`, the cell number change was found to be 13.8%. Further, the AC50 under setting [2] was 0.651 µM [rising, single point].

With `CCC(C)n1ncn(-c2ccc(N3CCN(c4ccc(O)cc4)CC3)cc2)c1=O` (centres undefined), the AC50 under setting [2] was 0.651 µM [rising, full curve, poor fit].

In the case of `Cc1[nH]c(-c2ccc(F)cc2)cc1C(=O)N1CCN(c2ccccc2)CC1`, the cell number change was -17.6%. In addition, the AC50 under setting [2] was 29.1 µM [falling, single point].

`Cc1ccc(C)c(S(=O)(=O)N2CCCCC2CCNC(=O)C(=O)NCc2ccco2)c1` (centres undefined): the cell number change was -11%. Moreover, under setting [2], the AC50 was 16.4 µM [falling, partial curve, poor fit].

In the case of `COc1ccc(CCNC(=O)COC(=O)c2ccc(N3CCCC3=O)cc2)cc1OC`, the cell number change was -22.1%. For the same compound, the AC50 under setting [2] is 2.06 µM [falling, partial curve].

For the compound `Cc1ccccc1NC(=O)/C(C#N)=C/c1ccsc1`, the cell number change is -11.5%. In addition, under setting [2], the AC50 was 11.6 µM [falling, single point].

Regarding `COc1ccc(NC(=O)CC2SC(N3CCOCC3)=NC2=O)cc1OC` (centres undefined), the cell number change was 20%. Under setting [2], the AC50 is 29.1 µM [rising, single point].

For `C=CCn1c(=O)/c(=C2/Sc3ccccc3N2CC)s/c1=C1/C(=O)NN=C1C`, the cell number change is -13.8%. The AC50 under setting [2] is 29.1 µM [falling, single point].

On to `O=C(CCNC(=O)c1ccccc1Cl)Nc1nnc(C2CC2)s1`, for which the cell number change is 67.2%. The AC50 under setting [1] is 29.1 µM [rising, single point].

Take `COc1cccc(NC(=O)c2cccc(C(=O)Nc3cccc(OC)c3)c2)c1`: the cell number change is 12.9%. In addition, the AC50 under setting [2] was 0.82 µM [falling, full curve, poor fit].

For the compound `CCOc1ccc(CCNS(=O)(=O)c2ccc(-c3ccc(=O)[nH]n3)o2)cc1OCC`, under setting [2], the half-maximal activity concentration (AC50) is 6.51 µM [falling, single point].

In the case of `CC1(C)CC(=O)C(N=Nc2c(Cl)cc(Cl)cc2Cl)=C(O)C1`, the cell number change is 33.1%.

For the compound `Cc1ccc(C(=O)CCC(=O)NCc2ccc(Cl)cc2)cc1`, the cell number change stood at 1.34%. The AC50 under setting [2] is 0.00461 µM [rising, full curve, poor fit].

Regarding `Cc1occc1-c1nnc(SCC(=O)c2cc3ccccc3oc2=O)o1`, the cell number change was -12.9%.

Regarding `Cc1[nH]nc(N=CC2=C(O)CC(c3ccco3)CC2=O)c1-c1ccccc1` (centres undefined), the cell number change is -19.8%. For the same compound, the AC50 under setting [2] is 20.6 µM [falling, single point].

For `CC1=C(C#N)C(c2ccccc2O)C(C#N)=C(C)N1`, the cell number change amounted to 57.1%.

For `CCOC(=O)C1CCN(C(=O)c2sc3nc(-c4ccccc4)cn3c2C)CC1`, the AC50 was 2.31 µM [rising, single point] under setting [1] and 3.66 µM [rising, partial curve] under setting [2].

Take `CCOc1ccc(NC(=O)N2CCC(NC(=O)C(Cc3ccc(OC)c(OC)c3)NC(C)=O)CC2)cc1` (centres undefined): the cell number change came to 16.8%. In addition, the AC50 under setting [2] is 0.0058 µM [rising, full curve, poor fit].

As for `COc1ccc(NC(=O)c2c(C)nn(Cc3ccccc3)c2Cl)cc1S(=O)(=O)N1CCOCC1`, under setting [1], the AC50 is 0.517 µM [rising, single point].

For `CCN(c1ccc(OC)cc1)S(=O)(=O)c1cc(-c2cc(C)no2)ccc1OC`, the AC50 under setting [2] was 29.1 µM [falling, single point].

With `CC(=O)N1c2ccc(S(=O)(=O)NCCC(=O)NCCc3ccc(C)cc3)cc2CC1C` (centres undefined), the cell number change was -12.9%. For the same compound, the AC50 under setting [2] was 6.51 µM [rising, single point].

As for `COC(=O)c1ccc(NC(=O)C2CC(=O)OC2c2ccccc2)cc1` (centres undefined), the cell number change came out at 19.6%. For the same compound, the AC50 under setting [2] was 0.206 µM [rising, full curve, poor fit].

Take `Cc1onc(-c2ccccc2Cl)c1C(=O)Nc1ccccc1N1CCOCC1`: the cell number change came out at 15.3%. For the same compound, under setting [2], the AC50 was 2.06 µM [rising, partial curve].

With `O=C1CC(C(=O)N(c2ccc(F)cc2)C(C(=O)NC2CCCC2)c2ccccn2)CS1` (centres undefined), the AC50 under setting [1] is 6.51 µM [rising, single point].

For the compound `CCCc1c(C)c2cc(C)ccc2[nH]c1=O`, the cell number change is -20.1%.

On to `CC(/C=C/c1ccco1)=N\NC(=O)COc1ccc(C)c(C)c1`, for which the cell number change is -25.1%. For the same compound, the AC50 under setting [2] was 2.91 µM [falling, full curve, poor fit].

As for `COc1ccc(CCNC(=O)CCc2ccc(S(=O)(=O)NCC(C)C)cc2)cc1`, the AC50 under setting [2] is 10.3 µM [rising, partial curve, poor fit].

Consider `CC(C)CCNC(=O)C1CCCN(S(=O)(=O)c2ccc(-n3cnnn3)cc2)C1` (centres undefined), for which the cell number change stood at 0.435%. Moreover, under setting [2], the AC50 is 0.58 µM [rising, single point].

Consider `Cc1csc(SC(C)C(=O)Nc2ccccc2C)n1` (centres undefined), for which the cell number change stood at 7.44%. Also, the AC50 under setting [1] is 0.461 µM [rising, single point]. The AC50 under setting [2] was 14.6 µM [rising, partial curve].

In the case of `Cc1cc(Cl)ccc1OCC(=O)Nc1ccccc1C(=O)N1CCOCC1`, the cell number change is -10.7%. In addition, the AC50 under setting [2] is 29.1 µM [falling, single point].

Broadly, the AC50 is the concentration giving half of the maximal activity seen. Read a high AC50 as activity only at high concentration.
